# Laboratory results from patent US10010077B2, “Ginkgo derived compositions and their use to prevent fruit infestation by codling moth” (Missouri State University, priority 2012, dated 2018).
# Some results were stated once for a whole list of compounds, not compound by compound.
# Test system: codling moth neonates
# Assay: apple plug choice feeding bioassay with codling moth neonates
# Type: in vivo, Cydia pomonella
# Conditions: facilitated fruit infestation
# Experimental: Codling moth pupae were obtained from USDA-ARS Yakima Agricultural Research Laboratory in Wapato, Wash., USA. These pupae were stored at 25° C., 70-80% relative humidity and 16:8 (L:D). Moths were allowed to oviposit on polypropylene Ziploc bags (S. C. Johnson, Racine, Wis., USA). Neonates were collected 0.5-1.0 h post-hatch and subjected to bioassays immediately.
# Bioassays were performed as described in details by Durden et al. (2008). Briefly, apple plugs were formed by forcing a plastic soda straw through a 20 mm thick section of apple containing both epidermis and flesh of the apple. The straw with a plug in it was cut to a length of approximately 15 mm, the plug positioned with the epidermis of the apple protruding 2 mm from the straw and entire assembly was dipped in liquid paraffin wax. Excess wax was removed from the epidermis of the plug using a warm spatula. […]
# Assays were evaluated after 20 hours to determine which plug was fed upon. Feeding deterrence index was calculated according to Jones (1952) by dividing the number of the neonates feeding on apple plugs treated with […] by the number of the neonates feeding on the plugs treated with dehydration alcohol only, subtracting this figure from 1, and multiplying the result by 100. […]
row,Structure (SMILES),concentration with statistically significant feeding stimulatory effects [mg/mL]
1,O=c1c(O)c(-c2ccc(O)cc2)oc2cc(O)cc(O)c12 [Kaempferol],≥ 10
2,O=c1c(O)c(-c2ccc(O)c(O)c2)oc2cc(O)cc(O)c12 [Quercetin],≥ 10
